From publication PMC10423226, “Identification of a drug binding pocket in TMEM16F calcium-activated ion channel and lipid scramblase” (Nature Communications, 2023)
No constants are given. Whether binding was seen depends on the method and setting. Some entries that bind do so weakly or less than the wild type.

Biological target: TMEM16F (mouse (printed as mTMEM16F, for the cell lines)) (UniProt Q6P9J9)
Experiment: cryo-EM structure; TMEM16F in MSP2N2-SoyPC nanodiscs with PIP2 and 4 mM CaCl2, without drug or with 50 uM niclosamide or 100 uM 1PBC; no C2 symmetry imposed; both purified

binding: binds
B1: TMEM16F (natural protein, UniProt Q6P9J9 1-911, looked up)
chain: MQMMTRKVLLNMELEEDDDEDGDIVLENFDQTIVCPTFGSLENQQDFRTPEFEEFNGKPDSLFFTDGQRRIDFILVYEDESKKENNKKGTNEKQKRKRQAYESNLICHGLQLEATRSVSDDKLVFVKVHAPWEVLCTYAEIMHIKLPLKPNDLKTRSPFGNLNWFTKVLRVNESVIKPEQEFFTAPFEKSRMNDFYILDRDSFFNPATRSRIVYFILSRVKYQVMNNVNKFGINRLVSSGIYKAAFPLHDCRFNYESEDISCPSERYLLYREWAHPRSIYKKQPLDLIRKYYGEKIGIYFAWLGYYTQMLLLAAVVGVACFLYGYLDQDNCTWSKEVCDPDIGGQILMCPQCDRLCPFWRLNITCESSKKLCIFDSFGTLIFAVFMGVWVTLFLEFWKRRQAELEYEWDTVELQQEEQARPEYEAQCNHVVINEITQEEERIPFTTCGKCIRVTLCASAVFFWILLIIASVIGIIVYRLSVFIVFSTTLPKNPNGTDPIQKYLTPQMATSITASIISFIIIMILNTIYEKVAIMITNFELPRTQTDYENSLTMKMFLFQFVNYYSSCFYIAFFKGKFVGYPGDPVYLLGKYRSEECDPGGCLLELTTQLTIIMGGKAIWNNIQEVLLPWVMNLIGRYKRVSGSEKITPRWEQDYHLQPMGKLGLFYEYLEMIIQFGFVTLFVASFPLAPLLALVNNILEIRVDAWKLTTQFRRMVPEKAQDIGAWQPIMQGIAILAVVTNAMIIAFTSDMIPRLVYYWSFSIPPYGDHTYYTMDGYINNTLSVFNITDFKNTDKENPYIGLGNYTLCRYRDFRNPPGHPQEYKHNIYYWHVIAAKLAFIIVMEHIIYSVKFFISYAIPDVSKITKSKIKREKYLTQKLLHESHLKDLTKNMGIIAERIGGTVDNSVRPKLE
modifications: glycans on the extracellular loops
notes: Sample in lipid nanodiscs (MSP2N2, SoyPC) with PIP2 and 4 mM CaCl2; also called mTMEM16F; TMEM16F dimer; source: HEK293s cells, extracted and purified in DDM/CHS, reconstituted in MSP2N2-SoyPC nanodiscs, FPLC
